Drawing on PubChem BioAssay AID200 (DTP/NCI, 2004), this text covers T/C and survivor count for 16 compounds.

This assay has as its system B6C3F1 mice, B16 melanoma ip, median survival T/C. Description: NCI In Vivo Anticancer Drug Screen. Data for tumor model B16 Melanoma (intraperitoneal) in B6C3F1 mice. The following applies: T/C endpoint: median survival time, schedule: Q01DX009 (ip), higher T/C = longer survival. The procedure:
The antitumor activity of compounds was measured in mice bearing transplantable tumors. Survival or tumor size were measured and the results are expressed as the measurement made in the treated group (T) divided by the measurement made in the vehicle treated control group (C). The tumor model used in this assay is B16 Melanoma (intraperitoneal) in B6C3F1 mice

Where [1] appears, read: dose: 6.25 mg/kg/injection, vehicle: Klucel (hydroxypropylcellulose) (HPC).
The mark [2] stands for this setting: dose: 12.5 mg/kg/injection, vehicle: Klucel (hydroxypropylcellulose) (HPC).
Setting [3] is: dose: 25.0 mg/kg/injection, vehicle: Klucel (hydroxypropylcellulose) (HPC).
Where [4] appears, read: dose: 50.0 mg/kg/injection, vehicle: Klucel (hydroxypropylcellulose) (HPC).
Where [5] appears, read: dose: 100.0 mg/kg/injection, vehicle: Klucel (hydroxypropylcellulose) (HPC).
The mark [6] stands for this setting: dose: 50.0 mg/kg/injection, vehicle: saline with Tween-80.
Where [7] appears, read: dose: 100.0 mg/kg/injection, vehicle: saline with Tween-80.
Where [8] appears, read: dose: 200.0 mg/kg/injection, vehicle: saline with Tween-80.
Setting [9] is: dose: 400.0 mg/kg/injection, vehicle: saline with Tween-80.
Where [10] appears, read: dose: 12.5 mg/kg/injection, vehicle: saline.
[11] abbreviates: dose: 25.0 mg/kg/injection, vehicle: saline.
[12] abbreviates: dose: 50.0 mg/kg/injection, vehicle: saline.
[13] abbreviates: dose: 100.0 mg/kg/injection, vehicle: saline.
The mark [14] stands for this setting: dose: 200.0 mg/kg/injection, vehicle: saline.
The mark [15] stands for this setting: dose: 400.0 mg/kg/injection, vehicle: saline.
Setting [16] is: dose: 25.0 mg/kg/injection, vehicle: saline with Tween-80.

The list shows only some results of the screen, not a fair sample: it covers a few groups of compounds. Not every dose and run of a compound is shown. T/C gives the treated animals as a percentage of the vehicle group. Some doses have a count of surviving animals in place of a T/C: the source holds a T/C of zero for them, seemingly a mark for toxic or unscored doses. Some doses without a T/C left all or most animals alive at the check, yet need not have been tolerated: the source hardly ever lists a survival T/C far under the control, and the zero likely stands for such cases as well. Counts of survivors are from the toxicity check (mostly the fifth day) where no day follows; animals may have died later. Schedules are NCI's codes, read here as Q, the interval in days (D) or hours (H), X, the number of doses. Some entries were tested several times; the values are given in rising order. Some complexes appear as separate parts, the way the source draws them; their charges need not add up. For survival time, this PubChem deposit counts one and a half times the control or more as active, and values a quarter to a half above the control carry no call in these data; other NCI protocols may use other cut-offs. Some T/C values carry the count of animals alive at the toxicity check (mostly the fifth day); without a count or a note in brackets, all were alive then.

`CCCCOc1ccc(N(CCCl)CCCl)cc1`: the T/C was 125 % of control under setting [1] and 125 % of control under setting [2]. Further, the survivor count under setting [3] is recorded as 10 of 10 and the survivor count under setting [4] is 10 of 10.

Take `COc1ccc(N(CCCl)CCCl)cc1OC`: the T/C runs as follows: (dose: 3.13 mg/kg/injection, vehicle: Klucel (hydroxypropylcellulose) (HPC)) 123 % of control; under setting [1], 135 % of control; under setting [2], 165 % of control; under setting [3], 183 % of control. For the same compound, the survivor count under setting [4] was 10 of 10.

As for `ICCN(CCI)c1cccc2ccccc12`, for the setting “dose: 3.12 mg/kg/injection, vehicle: Klucel (hydroxypropylcellulose) (HPC)”, the T/C is 92 and 196 % of control. In addition, the survivor count by setting is: under setting [1], 10 of 10; under setting [2], 1 of 10 and 10 of 10; under setting [3], 1 of 10 and 9 of 10; under setting [4], 0 of 10 and 10 of 10; under setting [5], 0 of 10 and 7 of 10.

Regarding `ClP1(Cl)=NP(Cl)(Cl)=NP(Cl)(Cl)=NP(Cl)(Cl)=N1`, the T/C is, setting by setting: under setting [2], 92 % of control; under setting [3], 91 % of control [9 of 10 alive]; under setting [4], 92 % of control; under setting [5], 91 % of control [9 of 10 alive]; (dose: 200.0 mg/kg/injection, vehicle: Klucel (hydroxypropylcellulose) (HPC)) 92 % of control. In addition, under “dose: 400.0 mg/kg/injection, vehicle: Klucel (hydroxypropylcellulose) (HPC)”, the survivor count is reported as 10 of 10.

On to `CC1(C)CN1P(=O)(Nc1ccccn1)N1CC1(C)C` (configuration not stated), for which the T/C under setting [6] is 103 % of control, the T/C under setting [7] was 109 % of control and the T/C under setting [8] was 139 % of control. The survivor count under setting [9] was 0 of 10.

Take `CC1(C)CN1P(=O)(Nc1ncccn1)N1CC1(C)C` (configuration not stated): the T/C by setting is: under setting [10], 106 % of control [9 of 10 alive]; under setting [11], 123 % of control; under setting [12], 137 % of control; under setting [13], 149 % of control; under setting [14], 143 % of control; under setting [15], 191 % of control.

Take `NC1CCCCC1.O=P(O)(NCCCO)N(CCCl)CCCl`: the T/C by setting is: under setting [11], 116 % of control; under setting [12], 143 % of control; under setting [13], 165 % of control; under setting [14], 126 % of control.

For `C[As](C)SC1OC(CO)C(O)C(O)C1O` (configuration not stated), the T/C runs as follows: (dose: 3.12 mg/kg/injection, vehicle: saline) 98 and 102 % of control; (dose: 6.25 mg/kg/injection, vehicle: saline) 88 and 99 % of control; under setting [10], 92 and 99 % of control; under setting [11], 108 % of control; under setting [12], 103 and 124 % of control. The survivor count reads like this: under setting [11], 10 of 10; under setting [13], 4 of 10 and 6 of 10.

As to `Cc1cc(N(CCCl)CCCl)ccc1N`, the T/C (dose: 0.13 mg/kg/injection, vehicle: Klucel (hydroxypropylcellulose) (HPC)) was 119 % of control; the T/C (dose: 0.25 mg/kg/injection, vehicle: Klucel (hydroxypropylcellulose) (HPC)) was 131 % of control; the T/C (dose: 0.5 mg/kg/injection, vehicle: Klucel (hydroxypropylcellulose) (HPC)) is 145 % of control; the T/C (dose: 1.0 mg/kg/injection, vehicle: Klucel (hydroxypropylcellulose) (HPC)) was 137 % of control; the T/C (dose: 2.0 mg/kg/injection, vehicle: Klucel (hydroxypropylcellulose) (HPC)) was 108 % of control. Besides, the survivor count (dose: 4.0 mg/kg/injection, vehicle: Klucel (hydroxypropylcellulose) (HPC)) is listed as 10 of 10.

For the compound `NC(=O)c1[nH]cnc1/N=N\N(CCCl)CCCl`, the T/C (dose: 16.0 mg/kg/injection, vehicle: other) was 110 % of control; the T/C (dose: 32.0 mg/kg/injection, vehicle: other) is 142 % of control; the T/C (dose: 64.0 mg/kg/injection, vehicle: other) is 160 % of control; the T/C (dose: 128.0 mg/kg/injection, vehicle: other) is 108 % of control. In addition, the survivor count (dose: 256.0 mg/kg/injection, vehicle: other) was 10 of 10.

On to `Cc1ccc(N(CCCl)CCCl)cc1C`, for which the T/C under setting [1] is 126 % of control; the T/C under setting [2] was 129 % of control; the T/C under setting [3] is 152 % of control; the T/C under setting [4] is 189 % of control; the T/C under setting [5] was 172 % of control.

For `Cc1ccc(Sc2ccc([N+](=O)[O-])cc2[N+](=O)[O-])c([N+](=O)[O-])c1`, the T/C is, setting by setting: under setting [10], 108 % of control; under setting [11], 111 % of control; under setting [12], 106 % of control; under setting [13], 105 % of control; under setting [14], 110 % of control; under setting [15], 120 % of control.

On to `ClC1CSC1`, for which the T/C is, setting by setting: under setting [16], 96 % of control; (dose: 50.0 mg/kg/injection, vehicle: saline with Tween-80, evaluated on day 45) 95 % of control; (dose: 50.0 mg/kg/injection, vehicle: saline with Tween-80, evaluated on day 60) 90 % of control; (dose: 100.0 mg/kg/injection, vehicle: saline with Tween-80, evaluated on day 45) 108 % of control; (dose: 100.0 mg/kg/injection, vehicle: saline with Tween-80, evaluated on day 60) 91 % of control; under setting [8], 98 % of control. Moreover, the T/C under setting [9] is 91 % of control. Besides, the survivor count under setting [8] is given as 7 of 10 and the survivor count under setting [9] was 0 of 10.

Turning to `NNC(=O)NP(=O)(NC(=O)NN)NC(=O)NN`, the T/C is 87 % of control [9 of 10 alive] under setting [16], 96 % of control under setting [6], 99 % of control under setting [7] and 101 % of control under setting [8].

`N/C(=N\[N+](=O)[O-])N(CCO[N+](=O)[O-])N=O`: the T/C (dose: 6.25 mg/kg/injection, vehicle: saline with Tween-80) is 127 % of control; the T/C (dose: 12.5 mg/kg/injection, vehicle: saline with Tween-80) is 147 % of control; the T/C under setting [16] was 133 % of control; the T/C under setting [6] was 135 % of control.

In the case of `[Au].[C-]#N.[C-]#N`, the T/C (dose: 0.62 mg/kg/injection, vehicle: saline) was 90 % of control; the T/C (dose: 1.25 mg/kg/injection, vehicle: saline) is 96 % of control; the T/C (dose: 2.5 mg/kg/injection, vehicle: saline) is 93 % of control; the T/C (dose: 5.0 mg/kg/injection, vehicle: saline) was 91 % of control; the T/C (dose: 10.0 mg/kg/injection, vehicle: saline) is 95 % of control [8 of 10 alive]. Moreover, the survivor count (dose: 20.0 mg/kg/injection, vehicle: saline) is given as 0 of 10.
